From PMC11900566
No constants are given. Whether binding was seen depends on the method and setting. Binding seen in cells or lysates may run through a third protein. Some results given as binding are weak or reduced against the parent protein; the word gives no strength. Tags and fused reporters may be left off the sequences shown.

Protein sequences, listed by entry. Tags and fused reporters are not part of them.
UniProt O82486: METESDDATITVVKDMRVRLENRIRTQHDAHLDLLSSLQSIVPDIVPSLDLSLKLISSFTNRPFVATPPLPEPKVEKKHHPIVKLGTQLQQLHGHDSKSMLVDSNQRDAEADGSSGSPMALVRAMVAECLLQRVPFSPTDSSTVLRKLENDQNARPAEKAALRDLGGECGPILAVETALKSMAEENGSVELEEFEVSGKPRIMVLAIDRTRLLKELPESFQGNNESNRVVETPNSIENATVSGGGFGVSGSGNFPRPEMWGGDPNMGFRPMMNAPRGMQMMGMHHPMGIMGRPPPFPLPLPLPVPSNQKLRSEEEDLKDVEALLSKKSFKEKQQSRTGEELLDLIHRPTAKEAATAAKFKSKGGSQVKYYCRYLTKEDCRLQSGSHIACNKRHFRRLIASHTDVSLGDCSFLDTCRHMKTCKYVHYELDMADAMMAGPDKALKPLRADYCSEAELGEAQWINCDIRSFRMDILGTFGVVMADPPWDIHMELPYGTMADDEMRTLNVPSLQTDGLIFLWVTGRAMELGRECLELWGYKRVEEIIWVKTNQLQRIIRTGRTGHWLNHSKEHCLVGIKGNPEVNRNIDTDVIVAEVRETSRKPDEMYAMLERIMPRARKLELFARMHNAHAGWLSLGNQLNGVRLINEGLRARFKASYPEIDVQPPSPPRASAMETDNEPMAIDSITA

Target: AtMTA-NLUC (Arabidopsis) (UniProt O82486)
Assay: split reporter; Split-LUC imaging; CLUC and NLUC fusions co-infiltrated by Agrobacterium GV3101 into N. benthamiana leaves; 500 uM luciferin, dark for 5 min

B1: AtSET-CLUC (domain or fragment, UniProt Q9C5X4 898-1016)
chain: KRLAFGKSGIHGFGIFAKLPHRAGDMMIEYTGELVRPSIADKREQLIYNSMVGAGTYMFRIDDERVIDATRTGSIAHLINHSCVPNCYSRVITVNGDEHIIIFAKRHIPKWEELTYDYR
  binding: binds
